The assay addresses Mre11-Rad50-Nbs1 (MRN) complex (UniProt P49959). Description: assay not given; paragraph 116 describes a pull-down on streptavidin beads with biotinylated NBS1.

Sequences of proteins named here, by UniProt entry; tags and fusion partners are left off. A change or cut given only in a name is not applied to a line headed by its entry.
UniProt P49959: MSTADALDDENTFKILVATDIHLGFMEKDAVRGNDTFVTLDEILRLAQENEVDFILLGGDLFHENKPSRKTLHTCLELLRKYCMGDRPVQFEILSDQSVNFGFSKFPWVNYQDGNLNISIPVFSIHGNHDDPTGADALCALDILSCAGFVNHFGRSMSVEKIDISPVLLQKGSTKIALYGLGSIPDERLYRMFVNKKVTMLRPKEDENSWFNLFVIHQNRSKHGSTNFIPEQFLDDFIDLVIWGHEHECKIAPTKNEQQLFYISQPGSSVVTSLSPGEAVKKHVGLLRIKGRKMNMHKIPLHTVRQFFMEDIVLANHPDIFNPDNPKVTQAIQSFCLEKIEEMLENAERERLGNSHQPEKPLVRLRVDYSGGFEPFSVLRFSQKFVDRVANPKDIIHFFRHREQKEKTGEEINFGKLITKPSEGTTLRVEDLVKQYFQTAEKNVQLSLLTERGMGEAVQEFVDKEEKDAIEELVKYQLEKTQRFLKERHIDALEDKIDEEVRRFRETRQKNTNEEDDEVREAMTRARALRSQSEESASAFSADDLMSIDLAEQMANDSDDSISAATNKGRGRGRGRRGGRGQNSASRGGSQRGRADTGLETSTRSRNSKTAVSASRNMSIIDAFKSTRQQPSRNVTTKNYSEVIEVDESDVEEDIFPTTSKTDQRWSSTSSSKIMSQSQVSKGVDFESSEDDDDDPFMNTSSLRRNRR
UniProt Q9BQ15: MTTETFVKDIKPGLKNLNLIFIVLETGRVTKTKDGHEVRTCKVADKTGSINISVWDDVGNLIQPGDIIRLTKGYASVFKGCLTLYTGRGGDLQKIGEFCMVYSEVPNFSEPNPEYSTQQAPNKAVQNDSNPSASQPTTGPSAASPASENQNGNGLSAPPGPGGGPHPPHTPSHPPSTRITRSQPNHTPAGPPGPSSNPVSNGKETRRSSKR

No constants are given. Whether binding was seen depends on the method and setting. In cells and extracts the contact can be indirect. Some results given as binding are weak or reduced against the parent protein; the word gives no strength.

As for “human ssDNA binding protein 1 (hSSB1) (from UniProt Q9BQ15 1-211)”, the binding result is reported as “binds”.

(Values after patent US20100297623A1.)
